# In the supplement of paper PMC12542422:
# Where a name gives a salt, the structure may show the parent alone. ± gives the standard deviation of the averaged measurements. Some of the results follow. These are raw signals, not scaled to a control.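 HeLa cells imaged for ribosome-assembly readouts (ENP1 staining with or without export block, or inducible tagged ribosomal protein reporters); machine learning classified each cell's signal location against solvent (DMSO) controls. Hits exceeded the DMSO false-positive mean by five standard deviations, then were visually confirmed; three biological replicates.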
# Legend:
# [1] = system: HeLa K (ENP1 immunofluorescence, +LMB); assay: fraction of cells with nucleolar or nucleolar/nucleoplasmic ENP1 signal (MainHitrate); higher = more cells with nucleolar/nuclear readout signal (for ENP1 -LMB: less RNAPI inhibition; for +LMB ENP1 and RP reporters: stronger nuclear/nucleolar retention, i.e. ribosome biogenesis defect); details: concentration: 1 µM; treatment time: 6 h; ENP1 +LMB; leptomycin B: 20 nM, last 1.5 h
# [2] = system: HeLa K (ENP1 immunofluorescence, no LMB); assay: as above; details: concentration: 1 µM; treatment time: 6 h; ENP1 -LMB; leptomycin B: none
# HeLa RPS2-YFP reporter = assay: fraction of reporter-positive cells with nuclear (nucleolar or nucleolar/nucleoplasmic) RPS2-YFP (MainHitrate); higher = more cells with nucleolar/nuclear readout signal (for ENP1 -LMB: less RNAPI inhibition; for +LMB ENP1 and RP reporters: stronger nuclear/nucleolar retention, i.e. ribosome biogenesis defect); details: concentration: 1 µM; treatment time: 6 h
# HeLa RPL29-GFP reporter = assay: fraction of reporter-positive cells with nuclear (nucleolar or nucleolar/nucleoplasmic) RPL29-GFP (MainHitrate); higher = more cells with nucleolar/nuclear readout signal (for ENP1 -LMB: less RNAPI inhibition; for +LMB ENP1 and RP reporters: stronger nuclear/nucleolar retention, i.e. ribosome biogenesis defect); details: concentration: 1 µM; treatment time: 6 h
Structure (SMILES),fraction [1],fraction [2],fraction of reporter-positive cells with nuclear (HeLa RPS2-YFP reporter),fraction of reporter-positive cells with nuclear (HeLa RPL29-GFP reporter)
COC(=O)C1=C(C)NC(C)=C(C(=O)OCC(C)C)C1c1ccccc1[N+](=O)[O-] (stereo unspecified) [Nisoldipine (Sular)],0.144 ± 0.12,0.9983 ± 0.0029,0.12 ± 0.076,0.195 ± 0.061
O=C1N=C(O)NC1(c1ccccc1)c1ccccc1 [Phenytoin sodium (Dilantin)],0.133 ± 0.2,0.994 ± 0.01,0.117 ± 0.068,0.224 ± 0.069
NNc1nncc2ccccc12 [Hydralazine hydrochloride],0.102 ± 0.15,0.9946 ± 0.0093,0.129 ± 0.089,0.229 ± 0.084
Cc1onc(-c2ccccc2)c1-c1ccc(S(N)(=O)=O)cc1 [Bextra (valdecoxib)],0.0584 ± 0.07,0.993 ± 0.011,0.109 ± 0.073,0.205 ± 0.049
CC(C)NCC(O)COc1ccc(CCOCC2CC2)cc1 (stereo unspecified) [Betaxolol (Betoptic)],0.0665 ± 0.091,0.992 ± 0.013,0.111 ± 0.1,0.228 ± 0.077
C#CCN(C)CCCOc1ccc(Cl)cc1Cl [Clorgyline HCl],0.16 ± 0.14,0.994 ± 0.011,0.164 ± 0.15,0.286 ± 0.16
Clc1ccc(COC(Cn2ccnc2)c2ccc(Cl)cc2Cl)c(Cl)c1 (stereo unspecified) [Miconazole (Monistat)],0.151 ± 0.23,0.984 ± 0.027,0.103 ± 0.069,0.223 ± 0.068
NS(=O)(=O)c1cc2c(cc1Cl)NC(C(Cl)Cl)NS2(=O)=O (stereo unspecified) [Trichlormethiazide (Achletin)],0.0563 ± 0.035,0.9979 ± 0.0037,0.081 ± 0.071,0.227 ± 0.058
CCCNC(=O)NS(=O)(=O)c1ccc(Cl)cc1 [Chlorpropamide],0.0777 ± 0.1,0.976 ± 0.041,0.115 ± 0.12,0.298 ± 0.15
NCCCC(O)(P(=O)(O)O)P(=O)(O)O [Alendronate (Fosamax)],0.165 ± 0.14,0.9973 ± 0.0047,0.0973 ± 0.057,0.204 ± 0.061
NC(=O)c1cn(Cc2c(F)cccc2F)nn1 [Rufinamide (Banzel)],0.109 ± 0.096,0.9985 ± 0.0026,0.125 ± 0.09,0.219 ± 0.091
CC(C)(C)C(=O)C(Oc1ccc(Cl)cc1)n1ccnc1 (stereo unspecified) [Climbazole],0.0318 ± 0.032,0.985 ± 0.027,0.133 ± 0.087,0.218 ± 0.042
COc1ccc2cccc(CCNC(C)=O)c2c1 [Agomelatine],0.081 ± 0.057,0.9984 ± 0.0028,0.116 ± 0.07,0.194 ± 0.073
NC[C@H]1O[C@H](O[C@H]2[C@H](O)[C@@H](O[C@H]3O[C@H](CO)[C@@H](O)[C@H](N)[C@H]3O)[C@H](N)C[C@@H]2N)[C@H](N)C[C@@H]1O [Tobramycin],0.132 ± 0.2,0.9946 ± 0.0093,0.103 ± 0.059,0.202 ± 0.061
CC(=O)O[C@H]1C(=O)[C@@]2(C)[C@H]([C@H](OC(=O)c3ccccc3)[C@]3(O)C[C@H](OC(=O)[C@H](O)[C@@H](NC(=O)c4ccccc4)c4ccccc4)C(C)=C1C3(C)C)[C@]1(OC(C)=O)CO[C@@H]1C[C@@H]2O [Paclitaxel (Taxol)],0.0713 ± 0.051,0.993 ± 0.011,0.17 ± 0.11,0.298 ± 0.022
COC1=C(OC)C(=O)C(CCCCCCCCCCO)=C(C)C1=O [Idebenone],0.109 ± 0.15,0.98 ± 0.034,0.0908 ± 0.073,0.203 ± 0.09
O=C1CCc2cc(OCCCCc3nnnn3C3CCCCC3)ccc2N1 [Cilostazol],0.0671 ± 0.037,0.9978 ± 0.0038,0.0693 ± 0.048,0.265 ± 0.1
OCCOCCN1CCN(C2=Nc3ccccc3Sc3ccccc32)CC1 [Quetiapine fumarate (Seroquel)],0.118 ± 0.14,0.9994 ± 0.001,0.0631 ± 0.01,0.203 ± 0.07
Nc1ccn([C@@H]2O[C@H](CO)[C@@H](O)[C@H]2O)c(=O)n1 [Cytidine],0.131 ± 0.2,0.993 ± 0.012,0.107 ± 0.045,0.229 ± 0.059

# Only fraction of reporter-positive cells with nuclear (HeLa RPS2-YFP reporter) and fraction [2], for some of the entries so far:
Structure (SMILES)	fraction of reporter-positive cells with nuclear (HeLa RPS2-YFP reporter)	fraction [2]
COC(=O)C1=C(C)NC(C)=C(C(=O)OCC(C)C)C1c1ccccc1[N+](=O)[O-] (stereo unspecified) [Nisoldipine (Sular)]	0.12 ± 0.076	0.9983 ± 0.0029
OCCOCCN1CCN(C2=Nc3ccccc3Sc3ccccc32)CC1 [Quetiapine fumarate (Seroquel)]	0.0631 ± 0.01	0.9994 ± 0.001
